From US10407383B2, “Cyclopentene and cyclopentadiene compounds for controlling invertebrate pests” (BASF SE, priority 2014, dated 2019)
Some results were stated once for a whole list of compounds, not compound by compound.

Experiments:
Type in all cases: in vivo
[1] = tested on: green peach aphid (Myzus persicae); experiment: Green peach aphid (Myzus persicae), systemic, 96-well plates with liquid artificial diet under membrane; conditions: 2500 ppm; adult aphids on treated diet; 3 days
From the text: B.1 Green Peach Aphid (Myzus persicae)
For evaluating control of green peach aphid (Myzus persicae) through systemic means the test unit consisted of 96-well-microtiter plates containing liquid artificial diet under an artificial membrane.
The compounds were formulated using a solution containing 75% v/v water and 25% v/v DMSO. Different concentrations of formulated compounds were pipetted into the aphid diet, using a custom built pipetter, at two replications.
After application, 5-8 adult aphids were placed on the artificial membrane inside the microtiter plate wells. The aphids were then allowed to suck on the treated aphid diet and incubated at about 23±1° C. and about 50±5% relative humidity for 3 days. Aphid mortality and fecundity was then visually assessed.

[2] = tested on: Red Spider Mite (Tetranychus kanzawai); experiment: Red spider mite (Tetranychus kanzawai), sprayed potted cowpea beans; conditions: 500 ppm; 72 hours after treatment
Protocol: B.9 Red Spider Mite (Tetranychus kanzawai)
The active compound was dissolved at the desired concentration in a mixture of 1:1 (vol:vol) distilled water:acetone. Surfactant (Kinetic HV) was added at a rate of 0.01% (vol/vol). The test solution was prepared at the day of use.
Potted cowpea beans of 4-5 days of age were cleaned with tap water and sprayed with 1-2 ml of the test solution using air driven hand atomizer. The treated plants were allowed to air dry and afterwards inoculated with 30 or more mites by clipping a cassava leaf section from rearing population. Treated plants were placed inside a holding room at about 25-27° C. and about 50-60% relative humidity. Percent mortality was assessed 72 hours after treatment.

[3] = tested on: vetch aphid (Megoura viciae); experiment: Vetch aphid (Megoura viciae), contact or systemic, broad bean leaf disks in 24-well plates; conditions: 2500 ppm; adult aphids on sprayed leaf disks; 5 days
Protocol: B.2 Vetch Aphid (Megoura viciae)
For evaluating control of vetch aphid (Megoura viciae) through contact or systemic means the test unit consisted of 24-well-microtiter plates containing broad bean leaf disks.
The compounds were formulated using a solution containing 75% v/v water and 25% v/v DMSO. Different concentrations of formulated compounds were sprayed onto the leaf disks at 2.5 μl, using a custom built micro atomizer, at two replications.
After application, the leaf disks were air-dried and 5-8 adult aphids placed on the leaf disks inside the microtiter plate wells. The aphids were then allowed to suck on the treated leaf disks and incubated at about 23±1° C. and about 50±5% relative humidity for 5 days. Aphid mortality and fecundity was then visually assessed.

[4] = tested on: Rice Green Leafhopper (Nephotettix virescens); experiment: Rice green leafhopper (Nephotettix virescens), sprayed potted rice seedlings; conditions: 500 ppm; adults; after 72 hours
Protocol: B.8 Rice Green Leafhopper (Nephotettix virescens)
Rice seedlings were cleaned and washed 24 hours before spraying. The active compounds were formulated in 1:1 acetone:water (vol:vol), and 0.01% vol/vol surfactant (Kinetic HV) was added. Potted rice seedlings were sprayed with 5-6 ml test solution, air dried, covered with Mylar cages and inoculated with 10 adults. Treated rice plants were kept at about 28-29° C. and relative humidity of about 50-60%. Percent mortality was recorded after 72 hours.

[5] = tested on: tobacco budworm (Heliothis virescens); experiment: Tobacco budworm (Heliothis virescens), insect diet with eggs in 96-well plates; conditions: 2500 ppm; egg and larval mortality; 5 days
Protocol: B.3 Tobacco Budworm (Heliothis virescens)
For evaluating control of tobacco budworm (Heliothis virescens) the test unit consisted of 96-well-microtiter plates containing an insect diet and 15-25 H. virescens eggs.
The compounds were formulated using a solution containing 75% v/v water and 25% v/v DMSO. Different concentrations of formulated compounds were sprayed onto the insect diet at 10 μl, using a custom built micro atomizer, at two replications.
(§1) After application, microtiter plates were incubated at about 28±1° C. and about 80±5% relative humidity for 5 days. Egg and larval mortality was then visually assessed.

[6] = tested on: boll weevil (Anthonomus grandis); experiment: Boll weevil (Anthonomus grandis), insect diet with eggs in 24-well plates; conditions: 2500 ppm; egg and larval mortality; 5 days
Protocol: B.4 Boll Weevil (Anthonomus grandis)
For evaluating control of boll weevil (Anthonomus grandis) the test unit consisted of 24-well-microtiter plates containing an insect diet and 20-30 A. grandis eggs.
The compounds were formulated using a solution containing 75% v/v water and 25% v/v DMSO. Different concentrations of formulated compounds were sprayed onto the insect diet at 20 μl, using a custom built micro atomizer, at two replications.
After application, microtiter plates were incubated at about 23±1° C. and about 50±5% relative humidity for 5 days. Egg and larval mortality was then visually assessed.

[7] = tested on: Mediterranean fruitfly (Ceratitis capitata); experiment: Mediterranean fruitfly (Ceratitis capitata), insect diet with eggs in microtiter plates; conditions: 2500 ppm; egg and larval mortality; 5 days
Protocol: B.5 Mediterranean Fruitfly (Ceratitis capitata)
For evaluating control of Mediterranean fruitfly (Ceratitis capitata) the test unit consisted of microtiter plates containing an insect diet and 50-80 C. capitata eggs.
The compounds were formulated using a solution containing 75% v/v water and 25% v/v DMSO. Different concentrations of formulated compounds were sprayed onto the insect diet at 5 μl, using a custom built micro atomizer, at two replications.
as §1

[8] = tested on: Orchid Thrips (Dichromothrips Corbetti); experiment: Orchid thrips (Dichromothrips corbetti), floral-immersion technique; conditions: 500 ppm; adult thrips; 72 hours after treatment
Protocol: B.7 Orchid Thrips (Dichromothrips Corbetti)
Dichromothrips corbetti adults used for bioassay were obtained from a colony maintained continuously under laboratory conditions. For testing purposes, the test compound was diluted in a 1:1 mixture of acetone:water (vol:vol), plus Kinetic HV at a rate of 0.01% v/v.
Thrips potency of each compound was evaluated by using a floral-immersion technique. All petals of individual, intact orchid flowers were dipped into treatment solution and allowed to dry in Petri dishes. Treated petals were placed into individual re-sealable plastic along with about 20 adult thrips. All test arenas were held under continuous light and a temperature of about 28° C. for duration of the assay. After 3 days, the numbers of live thrips were counted on each petal. The percent mortality was recorded 72 hours after treatment.

[9] = tested on: Diamond Back Moth (Plutella Xylostella); experiment: Diamond back moth (Plutella xylostella), cabbage leaf dip, 3rd instar larvae; conditions: 500 ppm, 72 hours after treatment
Protocol: B.6 Diamond Back Moth (Plutella Xylostella)
The active compound was dissolved at the desired concentration in a mixture of 1:1 (vol:vol) distilled water:aceteone. Surfactant (Kinetic HV) was added at a rate of 0.01% (vol/vol). The test solution was prepared at the day of use.
Leaves of cabbage were dipped in test solution and air-dried. Treated leaves were placed in petri dishes lined with moist filter paper and inoculated with ten 3rd instar larvae. Mortality was recorded 72 hours after treatment. Feeding damages were also recorded using a scale of 0-100%.

Measured: mortality in comparison with untreated controls

O=C(CNC(=O)c1ccc(C2=CC(c3cc(Cl)cc(Cl)c3)(C(F)(F)F)C=C2)cc1Cl)NCC(F)(F)F (stereo not drawn) [Compound 2-4]
at least 75%: all assays above

O=C(NCC(F)(F)F)c1ccc(C2=CCC(c3cc(Cl)cc(Cl)c3)(C(F)(F)F)C2)cc1Cl (stereo not drawn) [Compound 3-6]
at least 75%: all assays above
